{
  "source": "PubChem BioAssay AID192",
  "about": "(DTP/NCI, 2004)",
  "test_system": "BDF1 mice, B16 melanoma ip, median survival T/C",
  "assay": "NCI In Vivo Anticancer Drug Screen. Data for tumor model B16 Melanoma (intraperitoneal) in B6D2F1 (BDF1) mice",
  "conditions": "T/C endpoint: median survival time, higher T/C = longer survival",
  "protocol": "The antitumor activity of compounds was measured in mice bearing transplantable tumors. Survival or tumor size were measured and the results are expressed as the measurement made in the treated group (T) divided by the measurement made in the vehicle treated control group (C). The tumor model used in this assay is B16 Melanoma (intraperitoneal) in B6D2F1 (BDF1) mice",
  "key": {"[1]": {"conditions": "dose: 12.5 mg/kg/injection, schedule: Q01DX009 (ip), vehicle: Klucel (hydroxypropylcellulose) (HPC)"}, "[2]": {"conditions": "dose: 25.0 mg/kg/injection, schedule: Q01DX009 (ip), vehicle: Klucel (hydroxypropylcellulose) (HPC)"}, "[3]": {"conditions": "dose: 50.0 mg/kg/injection, schedule: Q01DX009 (ip), vehicle: Klucel (hydroxypropylcellulose) (HPC)"}, "[4]": {"conditions": "dose: 100.0 mg/kg/injection, schedule: Q01DX009 (ip), vehicle: Klucel (hydroxypropylcellulose) (HPC)"}, "[5]": {"conditions": "dose: 6.0 mg/kg/injection, schedule: Q01DX009 (ip), vehicle: saline"}, "[6]": {"conditions": "dose: 3.0 mg/kg/injection, schedule: Q01DX009 (ip), vehicle: Klucel (hydroxypropylcellulose) (HPC)"}, "[7]": {"conditions": "dose: 3.12 mg/kg/injection, schedule: Q01DX009 (ip), vehicle: Klucel (hydroxypropylcellulose) (HPC)"}, "[8]": {"conditions": "dose: 6.0 mg/kg/injection, schedule: Q01DX009 (ip), vehicle: Klucel (hydroxypropylcellulose) (HPC)"}, "[9]": {"conditions": "dose: 6.25 mg/kg/injection, schedule: Q01DX009 (ip), vehicle: Klucel (hydroxypropylcellulose) (HPC)"}},
  "note": "The list does not hold the whole screen: its compounds were picked by chemical class. Other doses and runs of a compound may be missing. T/C gives the treated animals as a percentage of the vehicle group. Where survival is the endpoint, this PubChem deposit counts one and a half times the control or more as active, and values a quarter to a half above the control carry no call in these data; other NCI protocols may use other cut-offs. Schedules are NCI's codes, read here as Q, the interval in days (D) or hours (H), X, the number of doses. Some T/C values are marked as having no survivor count here; that says nothing about deaths at the dose. Some entries hold several experiments; their values stand side by side, smallest first. Signs of the kind (2×) stand for listed records that agree.",
  "data": [
    {"smiles": "N#Cc1ccc(N(CCCl)CCCl)cc1", "values": [
      {"measurement": "T/C", "setting": "[1]", "value": "90 % of control [survivor count not shown]"},
      {"measurement": "T/C", "setting": "[2]", "value": "108 % of control [survivor count not shown]"},
      {"measurement": "T/C", "setting": "[3]", "value": "95 % of control [survivor count not shown]"},
      {"measurement": "T/C", "setting": "[4]", "value": "86 % of control [survivor count not shown]"},
      {"measurement": "T/C", "setting": "dose: 200.0 mg/kg/injection, schedule: Q01DX009 (ip), vehicle: Klucel (hydroxypropylcellulose) (HPC)", "value": "93 % of control [survivor count not shown]"}
    ]},
    {"smiles": "CCC1(CC)NC(=O)N(CCN(CCCl)CCCl)C1=O", "values": [
      {"measurement": "T/C", "setting": "dose: 0.75 mg/kg/injection, schedule: Q01DX009 (ip), vehicle: saline", "value": "109 % of control [survivor count not shown]"},
      {"measurement": "T/C", "setting": "dose: 0.78 mg/kg/injection, schedule: Q01DX009 (ip), vehicle: saline", "value": "101 % of control [survivor count not shown]"},
      {"measurement": "T/C", "setting": "dose: 1.5 mg/kg/injection, schedule: Q01DX009 (ip), vehicle: saline", "value": "102 % of control [survivor count not shown]"},
      {"measurement": "T/C", "setting": "dose: 1.56 mg/kg/injection, schedule: Q01DX009 (ip), vehicle: saline", "value": "90 [survivor count not shown], 114 [survivor count not shown] (2×), 136 % of control [survivor count not shown]"},
      {"measurement": "T/C", "setting": "dose: 3.0 mg/kg/injection, schedule: Q01DX009 (ip), vehicle: saline", "value": "114 % of control [survivor count not shown]"},
      {"measurement": "T/C", "setting": "dose: 3.12 mg/kg/injection, schedule: Q01DX009 (ip), vehicle: saline", "value": "119 [survivor count not shown], 134 [survivor count not shown], 135 [survivor count not shown], 163 % of control [survivor count not shown]"},
      {"measurement": "T/C", "setting": "[5]", "value": "127 % of control [survivor count not shown]"},
      {"measurement": "T/C", "setting": "dose: 6.25 mg/kg/injection, schedule: Q01DX009 (ip), vehicle: saline", "value": "107 [survivor count not shown], 134 [survivor count not shown], 161 [survivor count not shown], 162 % of control [survivor count not shown]"}
    ]},
    {"smiles": "CCCCN(CCCl)CCCC", "values": [
      {"measurement": "T/C", "setting": "dose: 12.5 mg/kg/injection, schedule: Q01DX009 (ip), vehicle: saline", "value": "97 % of control [survivor count not shown]"},
      {"measurement": "T/C", "setting": "dose: 12.5 mg/kg/injection, schedule: Q04DX003 (ip), vehicle: saline", "value": "110 % of control [survivor count not shown]"},
      {"measurement": "T/C", "setting": "dose: 25.0 mg/kg/injection, schedule: Q04DX003 (ip), vehicle: saline", "value": "105 % of control [survivor count not shown]"},
      {"measurement": "T/C", "setting": "dose: 50.0 mg/kg/injection, schedule: Q04DX003 (ip), vehicle: saline", "value": "112 % of control [survivor count not shown]"}
    ]},
    {"smiles": "COc1cc(CN(CCCl)CCBr)cc(OC)c1", "values": [
      {"measurement": "T/C", "setting": "dose: 0.75 mg/kg/injection, schedule: Q01DX009 (ip), vehicle: saline with Tween-80", "value": "103 % of control [survivor count not shown]"},
      {"measurement": "T/C", "setting": "dose: 0.78 mg/kg/injection, schedule: Q01DX009 (ip), vehicle: carboxymethylcellulose (CMC)", "value": "109 % of control [survivor count not shown]"},
      {"measurement": "T/C", "setting": "dose: 1.5 mg/kg/injection, schedule: Q01DX009 (ip), vehicle: Klucel (hydroxypropylcellulose) (HPC)", "value": "111 % of control [survivor count not shown]"},
      {"measurement": "T/C", "setting": "dose: 1.5 mg/kg/injection, schedule: Q01DX009 (ip), vehicle: saline with Tween-80", "value": "111 % of control [survivor count not shown]"},
      {"measurement": "T/C", "setting": "dose: 1.56 mg/kg/injection, schedule: Q01DX009 (ip), vehicle: carboxymethylcellulose (CMC)", "value": "124 % of control [survivor count not shown]"},
      {"measurement": "T/C", "setting": "dose: 2.7 mg/kg/injection, schedule: Q01DX009 (ip), vehicle: saline", "value": "116 % of control [survivor count not shown]"},
      {"measurement": "T/C", "setting": "[6]", "value": "117 % of control [survivor count not shown]"},
      {"measurement": "T/C", "setting": "dose: 3.0 mg/kg/injection, schedule: Q01DX009 (ip), vehicle: saline with Tween-80", "value": "118 % of control [survivor count not shown]"},
      {"measurement": "T/C", "setting": "[7]", "value": "146 % of control [survivor count not shown]"},
      {"measurement": "T/C", "setting": "dose: 3.12 mg/kg/injection, schedule: Q01DX009 (ip), vehicle: carboxymethylcellulose (CMC)", "value": "125 % of control [survivor count not shown]"},
      {"measurement": "T/C", "setting": "dose: 4.0 mg/kg/injection, schedule: Q01DX009 (ip), vehicle: saline", "value": "127 % of control [survivor count not shown]"},
      {"measurement": "T/C", "setting": "[8]", "value": "116 % of control [survivor count not shown]"},
      {"measurement": "T/C", "setting": "dose: 6.0 mg/kg/injection, schedule: Q01DX009 (ip), vehicle: saline with Tween-80", "value": "138 % of control [survivor count not shown]"},
      {"measurement": "T/C", "setting": "[5]", "value": "133 % of control [survivor count not shown]"},
      {"measurement": "T/C", "setting": "dose: 9.0 mg/kg/injection, schedule: Q01DX009 (ip), vehicle: saline", "value": "142 % of control [survivor count not shown]"},
      {"measurement": "T/C", "setting": "dose: 12.0 mg/kg/injection, schedule: Q01DX009 (ip), vehicle: saline with Tween-80", "value": "121 % of control [survivor count not shown]"}
    ]},
    {"smiles": "O=C(CCN(CCCl)CCCl)c1cccc([N+](=O)[O-])c1", "values": [
      {"measurement": "T/C", "setting": "[6]", "value": "144 % of control [survivor count not shown]"},
      {"measurement": "T/C", "setting": "[8]", "value": "144 % of control [survivor count not shown]"}
    ]},
    {"smiles": "Cc1ccc(C(=O)O)cc1N(CCCl)CCCl", "values": [
      {"measurement": "T/C", "setting": "dose: 1.56 mg/kg/injection, schedule: Q01DX009 (ip), vehicle: Klucel (hydroxypropylcellulose) (HPC)", "value": "95 [survivor count not shown] and 108 % of control [survivor count not shown]"},
      {"measurement": "T/C", "setting": "[7]", "value": "97 [survivor count not shown] and 127 % of control [survivor count not shown]"},
      {"measurement": "T/C", "setting": "[9]", "value": "104 [survivor count not shown] and 160 % of control [survivor count not shown]"},
      {"measurement": "T/C", "setting": "[1]", "value": "120 [survivor count not shown] and 158 % of control [survivor count not shown]"},
      {"measurement": "T/C", "setting": "[2]", "value": "175 % of control [survivor count not shown]"}
    ]},
    {"smiles": "NS(=O)(=O)c1ccc(N(CCCl)CCCl)cc1", "values": [
      {"measurement": "T/C", "setting": "[1]", "value": "90 % of control [survivor count not shown]"},
      {"measurement": "T/C", "setting": "dose: 25.0 mg/kg/injection, schedule: Q01DX009 (ip), vehicle: Klucel (hydroxypropylcellulose) (HPC), evaluated on day 60", "value": "97 % of control"},
      {"measurement": "T/C", "setting": "dose: 25.0 mg/kg/injection, schedule: Q01DX009 (ip), vehicle: Klucel (hydroxypropylcellulose) (HPC), evaluation day not shown", "value": "93 % of control [survivor count not shown]"},
      {"measurement": "T/C", "setting": "dose: 50.0 mg/kg/injection, schedule: Q01DX009 (ip), vehicle: Klucel (hydroxypropylcellulose) (HPC), evaluated on day 60", "value": "98 % of control"},
      {"measurement": "T/C", "setting": "dose: 50.0 mg/kg/injection, schedule: Q01DX009 (ip), vehicle: Klucel (hydroxypropylcellulose) (HPC), evaluation day not shown", "value": "96 % of control [survivor count not shown]"},
      {"measurement": "T/C", "setting": "[4]", "value": "101 % of control"},
      {"measurement": "T/C", "setting": "dose: 200.0 mg/kg/injection, schedule: Q01DX009 (ip), vehicle: Klucel (hydroxypropylcellulose) (HPC), evaluated on day 60", "value": "92 % of control"},
      {"measurement": "T/C", "setting": "dose: 200.0 mg/kg/injection, schedule: Q01DX009 (ip), vehicle: Klucel (hydroxypropylcellulose) (HPC), evaluation day not shown", "value": "92 % of control [survivor count not shown]"}
    ]},
    {"smiles": "Cc1cccc(CN(CCCl)CCCl)c1", "values": [
      {"measurement": "T/C", "setting": "dose: 2.5 mg/kg/injection, schedule: Q01DX009 (ip), vehicle: saline", "value": "90 % of control [survivor count not shown]"},
      {"measurement": "T/C", "setting": "dose: 5.0 mg/kg/injection, schedule: Q01DX009 (ip), vehicle: saline", "value": "91 % of control [survivor count not shown]"},
      {"measurement": "T/C", "setting": "dose: 10.0 mg/kg/injection, schedule: Q01DX009 (ip), vehicle: saline", "value": "90 % of control [survivor count not shown]"},
      {"measurement": "T/C", "setting": "dose: 20.0 mg/kg/injection, schedule: Q01DX009 (ip), vehicle: saline", "value": "91 % of control [survivor count not shown]"}
    ]},
    {"smiles": "Cc1ccc(N(CCCl)CCCl)cc1", "values": [
      {"measurement": "T/C", "setting": "[7]", "value": "101 % of control [survivor count not shown]"},
      {"measurement": "T/C", "setting": "[9]", "value": "116 % of control [survivor count not shown]"},
      {"measurement": "T/C", "setting": "[1]", "value": "110 % of control [survivor count not shown]"},
      {"measurement": "T/C", "setting": "[2]", "value": "121 % of control [survivor count not shown]"},
      {"measurement": "T/C", "setting": "[3]", "value": "137 % of control [survivor count not shown]"}
    ]}
  ]
}
